Source: PubChem BioAssay
Some of the results follow. Further columns of the screen follow, without active or inactive calls. For some of these results: Most of these compounds were active or inconclusive in the main read-out, so they are no random draw.

What was measured:
PubChem AID 1586 = details: yeast two-hybrid polyglutamine protein interaction, reporter readout; measured here: averaged growth delta OD
[1] = enhancers of SMN2 over SMN1 splicing, cell-based, SMN2/SMN1 luciferase reporters (AID 1598); details: SMN2 vs SMN1 luciferase splicing reporter cells, at 10 µM; SMN1 luciferase ratio: measured here: SMN1 luciferase reporter average; SMN2 luciferase ratio: measured here: SMN2 luciferase reporter average, stronger effect = higher value
[2] = protection against mutant huntingtin cytotoxicity, PC12 cells, LDH release (AID 1610); details: PC12 mutant huntingtin toxicity, final LDH at 4 uM, stronger effect = lower value

Structure (SMILES) | signal change (36 h minus 0 h) (PubChem AID 1586) | SMN1 luciferase ratio [1] | SMN2 luciferase ratio [1] | normalised LDH release [2]
O=C1NS(=O)(=O)c2ccccc21 | 0.147 | 0.92 | 0.81 | 0.973
CCCN(CCC)C(=O)C(CCC(=O)O)NC(=O)c1ccccc1 (stereo not drawn) | 0.333 | 0.94 | 0.99 | 0.486
CCCOc1ccccc1-c1nc2n[nH]nc2c(=O)[nH]1 | 0.149 | 0.92 | 0.92 | 0.974
c1ccc2c(c1)CCCC2C1=NCCN1 (stereo not drawn) | 0.068 | 0.93 | 1.02 | 0.712
O=C1O[C@@H](CO)[C@H](O)[C@@H](O)[C@@H]1O | 0.00085 | 0.93 | 0.86 | 0.644
O=C(O)CN(CC(=O)O)Cc1cc2c(-c3ccccc3C(=O)O)c3cc(CN(CC(=O)O)CC(=O)O)c(=O)cc-3oc2cc1O | 0.248 | 1.01 | 0.94 | 0.99
O=S(=O)(O)CCS | 0.119 | 0.91 | 0.86 | 0.951
CCN(CC)CCCC(C)Nc1c2ccc(Cl)cc2nc2ccc(OC)cc12 (stereo not drawn) | 0.0362 | 1.08 | 1.26 | 1.05
CC(C)=CCC/C(C)=C/CO | 0.0614 | 0.75 | 0.87 | 1.04
CC(=O)Oc1c(C)c(C)c2c(c1C)CCC(C)(CCCC(C)CCCC(C)CCCC(C)C)O2 (stereo not drawn) | 0.0984 | 0.87 | 0.91 | 1.02
CCc1cccc2c3c([nH]c12)C(CC)(CC(=O)O)OCC3 (stereo not drawn) | 0.112 | 0.79 | 0.91 | 0.713
C[C@]12CCC3c4ccc(OS(=O)(=O)O)cc4CCC3C1CC[C@H]2O (stereo partly drawn) | 0.225 | 0.92 | 1.03 | 0.938
CC(C)NCC(O)c1ccc(O)c(O)c1 (stereo not drawn) | 0.156 | 0.97 | 0.99 | 1.11
CC(=O)OCC(=O)[C@@]12OC3(CCCC3)O[C@@H]1CC1C3CCC4=CC(=O)C=C[C@]4(C)[C@@]3(F)[C@@H](O)C[C@@]12C (stereo partly drawn) | 0.0401 | 1.04 | 0.9 | 0.395
Cc1ccccc1C(OCCN(C)C)c1ccccc1 (stereo not drawn) | 0.138 | 0.94 | 0.82 | 0.993
Nc1ccc(S(=O)(=O)Nc2cnc3ccccc3n2)cc1 | 0.053 | 0.86 | 0.84 | 0.872
NCC1CCC(N)C(OC2C(N)CC(N)C(OC3OC(CO)C(O)C(N)C3O)C2O)O1 (stereo not drawn) | 0.534 | 0.95 | 0.95 | 0.952
C[C@]12CCC(=O)C=C1CCC1C2[C@@H](O)C[C@@]2(C)C1CC[C@]2(O)C(=O)CO (stereo partly drawn) | 0.121 | 0.88 | 0.81 | 0.808
O=C(O)c1cc(=O)c2cccc(O)c2[nH]1 | 0.051 | 0.9 | 0.89 | 0.844

Structure (SMILES) | signal change (36 h minus 0 h) (PubChem AID 1586) | SMN1 luciferase ratio [1] | SMN2 luciferase ratio [1] | normalised LDH release [2]
Cn1c(=O)c2c(ncn2CC(O)CO)n(C)c1=O (stereo not drawn) | 0.104 | 0.84 | 0.98 | 0.948
CCOC(=O)OC(C)OC(=O)C1N2C(=O)C(NC(=O)[C@H](N)c3ccccc3)C2SC1(C)C (stereo partly drawn) | 0.141 | 0.84 | 0.9 | 0.375
CCCC1O[C@@H]2CC3C4CCC5=CC(=O)C=CC5(C)C4[C@@H](O)CC3(C)[C@]2(C(=O)CO)O1 (stereo partly drawn) | 0.136 | 0.94 | 0.82 | 0.182
CCOC(=O)CCC(=O)O[C@H]1[C@H](O[C@@H]2[C@@H](C)[C@H](O[C@H]3C[C@@](C)(OC)[C@@H](O)[C@H](C)O3)[C@@H](C)C(=O)O[C@H](CC)[C@@](C)(O)[C@H](O)[C@@H](C)C(=O)[C@H](C)C[C@@]2(C)O)O[C@H](C)C[C@@H]1N(C)C | 0.199 | 0.89 | 0.93 | 0.751
CCC(=O)c1c(O)cc(O)cc1O | 0.221 | 0.93 | 0.8 | 0.844
CCCOc1ccc2nc(NC(=O)OC)[nH]c2c1 | 0.149 | 1.43 | 1.1 | 1.01
COc1c2occc2cc2ccc(=O)oc12 | 0.0927 | 0.85 | 0.96 | 0.914
c1ccc2c(CC3=NCCN3)cccc2c1 | 0.21 | 0.86 | 0.91 | 0.46
C=CCSCC1Nc2cc(Cl)c(S(N)(=O)=O)cc2S(=O)(=O)N1 (stereo not drawn) | 0.0459 | 0.98 | 0.88 | 0.909
N[C@@H]1CONC1=O | 0.163 | 0.85 | 0.95 | 0.75
Cc1ccc(C(=O)c2ccc(CC(=O)O)n2C)cc1 | 0.19 | 0.85 | 0.9 | 0.689
Cc1c(N(C)CS(=O)(=O)O)c(=O)n(-c2ccccc2)n1C | 0.0775 | 0.9 | 0.84 | 1.18
CS(=O)(=O)c1ccc([C@@H](O)[C@@H](CO)NC(=O)C(Cl)Cl)cc1 | 0.547 | 0.86 | 0.7 | 0.715
CC12CCC(CC1=O)C2(C)C (stereo not drawn) | 0.365 | 0.93 | 0.94 | 0.982
Cc1c(N)c(=O)n(-c2ccccc2)n1C | 0.197 | 0.86 | 0.89 | -0.535
CC(CN1c2ccccc2Sc2ccccc21)N(C)C (stereo not drawn) | 0.153 | 0.76 | 0.71 | 0.903
CCCNC(=O)NS(=O)(=O)c1ccc(Cl)cc1 | 0.15 | 0.83 | 0.87 | 0.844
CC1(C)O[C@@H]2C[C@H]3C4C[C@H](F)C5=CC(=O)C=CC5(C)[C@@]4(F)[C@@H](O)C[C@]3(C)[C@]2(C(=O)CO)O1 (stereo partly drawn) | 0.171 | 0.87 | 0.85 | 0.603

Gathered by group: the entries above with four or more nitrogen atoms
Structure (SMILES) | signal change (36 h minus 0 h) (PubChem AID 1586) | SMN1 luciferase ratio [1] | SMN2 luciferase ratio [1] | normalised LDH release [2]
CCCOc1ccccc1-c1nc2n[nH]nc2c(=O)[nH]1 | 0.149 | 0.92 | 0.92 | 0.974
Nc1ccc(S(=O)(=O)Nc2cnc3ccccc3n2)cc1 | 0.053 | 0.86 | 0.84 | 0.872
NCC1CCC(N)C(OC2C(N)CC(N)C(OC3OC(CO)C(O)C(N)C3O)C2O)O1 (stereo not drawn) | 0.534 | 0.95 | 0.95 | 0.952
Cn1c(=O)c2c(ncn2CC(O)CO)n(C)c1=O (stereo not drawn) | 0.104 | 0.84 | 0.98 | 0.948
